Where two headings read alike, the source gives them in different places. Results are given in words; binding and its absence hold for the method and conditions named. In cells and extracts the contact can be indirect. Some results given as binding are weak or reduced against the parent protein; the word gives no strength.
B1: TRAF3 (protein, UniProt Q60803 1-567)
chain: MESSKKMDAAGTLQPNPPLKLQPDRGAGSVLVPEQGGYKEKFVKTVEDKYKCEKCRLVLCNPKQTECGHRFCESCMAALLSSSSPKCTACQESIIKDKVFKDNCCKREILALQVYCRNEGRGCAEQLTLGHLLVHLKNECQFEELPCLRADCKEKVLRKDLRDHVEKACKYREATCSHCKSQVPMIKLQKHEDTDCPCVVVSCPHKCSVQTLLRSELSAHLSECVNAPSTCSFKRYGCVFQGTNQQIKAHEASSAVQHVNLLKEWSNSLEKKVSLLQNESVEKNKSIQSLHNQICSFEIEIERQKEMLRNNESKILHLQRVIDSQAEKLKELDKEIRPFRQNWEEADSMKSSVESLQNRVTELESVDKSAGQAARNTGLLESQLSRHDQMLSVHDIRLADMDLRFQVLETASYNGVLIWKIRDYKRRKQEAVMGKTLSLYSQPFYTGYFGYKMCARVYLNGDGMGKGTHLSLFFVIMRGEYDALLPWPFKQKVTLMLMDQGSSRRHLGDAFKPDPNSSSFKKPTGEMNIASGCPVFVAQTVLENGTYIKDDTIFIKVIVDTSDLPDP
B2: TRAF2 (protein, UniProt P39429 1-501)
chain: MAAASVTSPGSLELLQPGFSKTLLGTRLEAKYLCSACKNILRRPFQAQCGHRYCSFCLTSILSSGPQNCAACVYEGLYEEGISILESSSAFPDNAARREVESLPAVCPNDGCTWKGTLKEYESCHEGLCPFLLTECPACKGLVRLSEKEHHTEQECPKRSLSCQHCRAPCSHVDLEVHYEVCPKFPLTCDGCGKKKIPRETFQDHVRACSKCRVLCRFHTVGCSEMVETENLQDHELQRLREHLALLLSSFLEAQASPGTLNQVGPELLQRCQILEQKIATFENIVCVLNREVERVAVTAEACSRQHRLDQDKIEALSNKVQQLERSIGLKDLAMADLEQKVSELEVSTYDGVFIWKISDFTRKRQEAVAGRTPAIFSPAFYTSRYGYKMCLRVYLNGDGTGRGTHLSLFFVVMKGPNDALLQWPFNQKVTLMLLDHNNREHVIDAFRPDVTSSSFQRPVSDMNIASGCPLFCPVSKMEAKNSYVRDDAIFIKAIVDLTGL

Chains of the proteins cited; added tags and fusions are not shown. Residues count along the entry.
UniProt P50284, 31-415: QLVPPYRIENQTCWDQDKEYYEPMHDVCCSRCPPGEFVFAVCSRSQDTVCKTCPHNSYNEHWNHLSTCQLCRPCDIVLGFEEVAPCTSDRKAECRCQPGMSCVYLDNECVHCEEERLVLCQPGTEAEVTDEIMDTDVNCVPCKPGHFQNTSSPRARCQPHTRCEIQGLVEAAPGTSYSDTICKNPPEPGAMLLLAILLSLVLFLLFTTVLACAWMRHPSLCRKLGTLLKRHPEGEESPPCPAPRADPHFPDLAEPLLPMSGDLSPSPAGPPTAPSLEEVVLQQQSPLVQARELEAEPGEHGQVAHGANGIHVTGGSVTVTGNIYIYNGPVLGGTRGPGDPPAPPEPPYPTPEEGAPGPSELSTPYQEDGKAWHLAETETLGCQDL

Legend:
[1] = target: Lymphotoxin beta receptor (LTβR) of mouse melanoma B16F10 cells (mouse (endogenous in B16F10)) (UniProt P50284); experiment: co-IP
[2] = target: Lymphotoxin beta receptor (LTβR) of mouse melanoma B16F10 cells (mouse (endogenous in B16F10)) (UniProt P50284); experiment: co-IP; remark: listed apart in the source

| Binder | binding [1] | binding [2] |
| --- | --- | --- |
| B1 | binds |  |
| B2 | binds | binds weakly |

— paper doi:10.1101/2024.10.01.616077
